Library screen at single concentrations

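Whole-cell growth test on Mycobacterium tuberculosis, read after 4 days in a medium based on cholesterol and the lipid DPPC; the read-out is not stated. Tested at 50 µM. The record gives no direction; compounds that gave an IC50 in retests scored well above the rest, so higher reads as more growth inhibition. Of about 69,000 compounds tested this way, about 370 (0.54%) reached 50% or more in at least one test.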

Values are the deposited “Percent Effect”, in %. The controls that fix the scale are not given in the record; negative values are as filed. This is an unselected part of the compounds tested. Two or more numbers in one place are separate tests of the same structure; such repeats can differ widely.

For Cc1ccccc1OCCCC(=O)N1CCCC(n2cncn2)C1 (stereo not shown) the result was -0.6163%. O=C(c1cnccn1)N1CCc2ncc(CN3CCOCC3)n2CC1 read 9.084% and -8.108%. Cc1ccc(CCNC(=O)NC2CCN(CC(F)(F)F)C2=O)cn1 (stereo not shown) gave -6.564%. O=C(c1cnccn1)N1CCc2onc(Cn3cccn3)c2C1 read -9.118%. CC(NC(=O)N1CCN(c2ccccc2)CC1)c1nncn1C (stereo not shown) read -35.67%. CC1c2ncc(CN3CCN(C)CC3)n2CCN1Cc1cccnc1.O=C(O)C(F)(F)F.O=C(O)C(F)(F)F.O=C(O)C(F)(F)F.O=C(O)C(F)(F)F (stereo not shown) read 13.74%.

Result for O=C(Cn1c(=O)oc2ccccc21)NCC(O)c1ccc2c(c1)CCO2 (stereo not shown) was 2.496%. Result for CC(C)n1cnc2c1C(C(=O)N1CCCC1)N(S(C)(=O)=O)CC2 (stereo not shown) was 12.17%. Result for CC(NC(=O)N1CCc2ccccc2C1)c1nncn1C (stereo not shown) was -2.646%. Result for COc1nn(C)c2c1CCCN(C(=O)c1ccccc1F)C2 was -11.27%. CS(=O)(=O)c1ccc(CN2CCCCC2c2ccc(F)cc2)cc1 (stereo not shown) gave -42.72%. Cc1ccc(N(CCC#N)C(=O)CCc2cscn2)cc1C read 0.8041%.

Cn1cccc1C(CNC(=O)c1ccc(F)cc1F)N1CCCCCC1 (stereo not shown) read 31.79%. COCCNC(=O)Nc1cccc(COCCOC(C)C)c1 read -21.5%. CC(C)c1nccn1CCCNC(=O)c1ccc(-c2cn[nH]c2)nc1 read -13.58%. For COc1ncccc1NC(=O)NC(C)c1nncn1C (stereo not shown) the result was -3.914%. O=C(O)C(F)(F)F.[H][C@@]12CN(Cc3cccs3)CCO[C@]1([H])CN(S(=O)(=O)CC)C2 gave -5.147%. Cn1ncc2cnn(CC(O)COCc3ccccc3Cl)c2c1=O (stereo not shown) read 22.16%.

CCn1cc(CN2CCCCC2CCn2ccnc2C)cc1C#N (stereo not shown) read -1.207% and 1.154%. Result for CC(C)CCN(C(=O)c1ccc(-n2ncc(C#N)c2N)cc1)C1CC1 was -0.583%. Result for [H][C@]12CC[C@]([H])(CN(C(=O)N(C)C)C1)N(C(=O)c1cccnc1SC)C2 was -3.509%. For COc1ccc2c(c1)CCCN2C(=O)CN1CCOC(CN(C)C)C1 (stereo not shown) the result was -0.4474%. With [H][C@]12CCC[C@@]1(COC)CN(C(=O)COc1ccccc1OC)C2 the screen gave 15.76%. Result for CCCN(CCC)Cc1nnsc1Cl was 11.31%.

With Cn1cc(CCNC(=O)c2cc3ccccc3nc2N2CCCC2)cn1 the screen gave 16.38%. CC(=O)N1CCN(C(=O)CN2CCN(c3cccc(C)c3)CC2)CC1 read -3.46% and -7.375%. Cc1nc(CN2CCC3(CCN(Cc4cnn(C)c4)CC3)C2=O)cs1.O=C(O)C(F)(F)F.O=C(O)C(F)(F)F read -23.51%. Result for CC(C)N(CC(N)=O)Cc1csc(C(C)(C)C)n1 was -5.839%. For CC[C@@H](CO)NC(=O)c1cccc(CCC(C)(C)O)c1 the result was -1.701%. CCn1nnc(NCc2cc(Br)cc(Br)c2OC)n1 gave 5.803%.

Result for NC(=O)c1cc(C2CCCN(Cc3ccc4c(c3)OCCO4)C2)n[nH]1 (stereo not shown) was 10.09%. For CCc1ccc(C(=O)N2CCN(CC(O)c3ccccc3)CC2)o1 (stereo not shown) the result was -3.087%. CC(C)C(=O)Nc1cccc(CNC(=O)CSCc2ccccn2)c1 read -16.85%. Result for CC(=O)N1CCCN(C(=O)Nc2ccccc2N2CCOC2=O)CC1 was -3.796%. CC(=O)N1CCCC1c1cccc(Cc2ccccc2Cl)n1 (stereo not shown) read -1.653%. CC(C)(O)CN1CCN(C(=O)c2cccn2Cc2cccnc2)CC1 read -8.133%.

Result for CCOc1ccc(NC(=O)c2cccc(OC)c2OC)cc1 was 13.74%. Result for O=C(NCC1(O)CCc2ccccc21)Nc1ccc2c(c1)OCO2 (stereo not shown) was 17.47%. COCCC(=O)N1CCCC([C@@H]2C[C@H](C(F)F)n3ncnc3N2)C1 (stereo partly shown) gave -8.844% and 3.001%. CN(Cc1ccccc1F)Cc1cc2c(cc1Br)OCCO2 read 20.51%. CNC(=O)c1cc(-n2ccnc2-c2cnc(N(C)C)nc2)ccc1OC read -43.12%. Result for Cc1cnn(CC2CCCCN2C(=O)c2ccc(NC3CC3)nc2)c1 (stereo not shown) was -3.341%.

5 of the entries, repeated:

SMILES	percent effect
COc1ncccc1NC(=O)NC(C)c1nncn1C (stereo not shown)	-3.914%
COc1ccc2c(c1)CCCN2C(=O)CN1CCOC(CN(C)C)C1 (stereo not shown)	-0.4474%
CC(C)n1cnc2c1C(C(=O)N1CCCC1)N(S(C)(=O)=O)CC2 (stereo not shown)	12.17%
Cc1cnn(CC2CCCCN2C(=O)c2ccc(NC3CC3)nc2)c1 (stereo not shown)	-3.341%
CC(=O)N1CCN(C(=O)CN2CCN(c3cccc(C)c3)CC2)CC1	-3.46% and -7.375%

Measurements from “University of Dundee, Small-Polar-MMV Screening Library” (2021), ChEMBL document CHEMBL3988442.